Laboratory results: patent US20160089464A1, “MALODOR REDUCTION COMPOSITIONS” (The Procter & Gamble Company, priority 2014, published 2016)

Experiment: Comment Code material properties: vapor pressure, ClogP, probability of ingredient color instability, odor detection threshold, melamine formaldehyde PMC headspace response ratio and leakage, liquid dish neat product liquid-air partition coefficient
Type: physicochemical
Conditions: Table 1 materials; each letter of the code is one property class (vapor pressure, ClogP, color instability, odor detection threshold, PMC headspace ratio, PMC leakage, liquid dish liquid-air partition coefficient)

- Comment Code: DEFHK
SMILES: O=C(c1ccccc1)c1ccccc1 [Material 655]
